Measured values: the supplement of paper PMC10849652
The other results are listed elsewhere or left out.

Sequences of proteins named here, by UniProt entry; tags and fusion partners are left off. A change or cut given only in a name is not applied to a line headed by its entry.
UniProt Q6RFH5: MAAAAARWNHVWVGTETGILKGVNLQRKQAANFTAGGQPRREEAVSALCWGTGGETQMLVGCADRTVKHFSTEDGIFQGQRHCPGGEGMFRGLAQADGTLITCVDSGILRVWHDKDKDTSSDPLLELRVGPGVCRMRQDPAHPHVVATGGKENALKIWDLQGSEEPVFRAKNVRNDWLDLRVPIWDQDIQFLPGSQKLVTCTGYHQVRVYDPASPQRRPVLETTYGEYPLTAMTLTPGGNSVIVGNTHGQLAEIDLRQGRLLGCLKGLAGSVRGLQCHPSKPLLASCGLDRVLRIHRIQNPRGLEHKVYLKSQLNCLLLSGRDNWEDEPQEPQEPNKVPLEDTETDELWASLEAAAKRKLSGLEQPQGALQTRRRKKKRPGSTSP
UniProt Q6UXN9, whole entry, looked up: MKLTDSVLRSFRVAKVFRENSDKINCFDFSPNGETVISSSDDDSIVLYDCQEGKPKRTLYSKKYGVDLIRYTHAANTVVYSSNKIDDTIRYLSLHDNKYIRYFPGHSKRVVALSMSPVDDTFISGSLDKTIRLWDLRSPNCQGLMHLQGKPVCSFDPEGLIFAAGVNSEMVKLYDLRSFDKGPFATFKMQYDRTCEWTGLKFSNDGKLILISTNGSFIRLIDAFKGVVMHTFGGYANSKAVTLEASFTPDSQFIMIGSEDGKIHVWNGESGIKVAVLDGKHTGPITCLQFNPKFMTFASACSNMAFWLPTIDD
UniProt Q9H9H4: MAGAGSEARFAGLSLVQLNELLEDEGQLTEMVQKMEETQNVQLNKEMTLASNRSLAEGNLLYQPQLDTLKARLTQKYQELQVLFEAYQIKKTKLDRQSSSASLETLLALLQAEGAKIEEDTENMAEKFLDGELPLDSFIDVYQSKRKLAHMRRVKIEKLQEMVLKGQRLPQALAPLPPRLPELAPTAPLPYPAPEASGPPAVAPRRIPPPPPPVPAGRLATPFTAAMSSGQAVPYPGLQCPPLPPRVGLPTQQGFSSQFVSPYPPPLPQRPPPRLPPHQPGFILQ
UniProt Q96RL7: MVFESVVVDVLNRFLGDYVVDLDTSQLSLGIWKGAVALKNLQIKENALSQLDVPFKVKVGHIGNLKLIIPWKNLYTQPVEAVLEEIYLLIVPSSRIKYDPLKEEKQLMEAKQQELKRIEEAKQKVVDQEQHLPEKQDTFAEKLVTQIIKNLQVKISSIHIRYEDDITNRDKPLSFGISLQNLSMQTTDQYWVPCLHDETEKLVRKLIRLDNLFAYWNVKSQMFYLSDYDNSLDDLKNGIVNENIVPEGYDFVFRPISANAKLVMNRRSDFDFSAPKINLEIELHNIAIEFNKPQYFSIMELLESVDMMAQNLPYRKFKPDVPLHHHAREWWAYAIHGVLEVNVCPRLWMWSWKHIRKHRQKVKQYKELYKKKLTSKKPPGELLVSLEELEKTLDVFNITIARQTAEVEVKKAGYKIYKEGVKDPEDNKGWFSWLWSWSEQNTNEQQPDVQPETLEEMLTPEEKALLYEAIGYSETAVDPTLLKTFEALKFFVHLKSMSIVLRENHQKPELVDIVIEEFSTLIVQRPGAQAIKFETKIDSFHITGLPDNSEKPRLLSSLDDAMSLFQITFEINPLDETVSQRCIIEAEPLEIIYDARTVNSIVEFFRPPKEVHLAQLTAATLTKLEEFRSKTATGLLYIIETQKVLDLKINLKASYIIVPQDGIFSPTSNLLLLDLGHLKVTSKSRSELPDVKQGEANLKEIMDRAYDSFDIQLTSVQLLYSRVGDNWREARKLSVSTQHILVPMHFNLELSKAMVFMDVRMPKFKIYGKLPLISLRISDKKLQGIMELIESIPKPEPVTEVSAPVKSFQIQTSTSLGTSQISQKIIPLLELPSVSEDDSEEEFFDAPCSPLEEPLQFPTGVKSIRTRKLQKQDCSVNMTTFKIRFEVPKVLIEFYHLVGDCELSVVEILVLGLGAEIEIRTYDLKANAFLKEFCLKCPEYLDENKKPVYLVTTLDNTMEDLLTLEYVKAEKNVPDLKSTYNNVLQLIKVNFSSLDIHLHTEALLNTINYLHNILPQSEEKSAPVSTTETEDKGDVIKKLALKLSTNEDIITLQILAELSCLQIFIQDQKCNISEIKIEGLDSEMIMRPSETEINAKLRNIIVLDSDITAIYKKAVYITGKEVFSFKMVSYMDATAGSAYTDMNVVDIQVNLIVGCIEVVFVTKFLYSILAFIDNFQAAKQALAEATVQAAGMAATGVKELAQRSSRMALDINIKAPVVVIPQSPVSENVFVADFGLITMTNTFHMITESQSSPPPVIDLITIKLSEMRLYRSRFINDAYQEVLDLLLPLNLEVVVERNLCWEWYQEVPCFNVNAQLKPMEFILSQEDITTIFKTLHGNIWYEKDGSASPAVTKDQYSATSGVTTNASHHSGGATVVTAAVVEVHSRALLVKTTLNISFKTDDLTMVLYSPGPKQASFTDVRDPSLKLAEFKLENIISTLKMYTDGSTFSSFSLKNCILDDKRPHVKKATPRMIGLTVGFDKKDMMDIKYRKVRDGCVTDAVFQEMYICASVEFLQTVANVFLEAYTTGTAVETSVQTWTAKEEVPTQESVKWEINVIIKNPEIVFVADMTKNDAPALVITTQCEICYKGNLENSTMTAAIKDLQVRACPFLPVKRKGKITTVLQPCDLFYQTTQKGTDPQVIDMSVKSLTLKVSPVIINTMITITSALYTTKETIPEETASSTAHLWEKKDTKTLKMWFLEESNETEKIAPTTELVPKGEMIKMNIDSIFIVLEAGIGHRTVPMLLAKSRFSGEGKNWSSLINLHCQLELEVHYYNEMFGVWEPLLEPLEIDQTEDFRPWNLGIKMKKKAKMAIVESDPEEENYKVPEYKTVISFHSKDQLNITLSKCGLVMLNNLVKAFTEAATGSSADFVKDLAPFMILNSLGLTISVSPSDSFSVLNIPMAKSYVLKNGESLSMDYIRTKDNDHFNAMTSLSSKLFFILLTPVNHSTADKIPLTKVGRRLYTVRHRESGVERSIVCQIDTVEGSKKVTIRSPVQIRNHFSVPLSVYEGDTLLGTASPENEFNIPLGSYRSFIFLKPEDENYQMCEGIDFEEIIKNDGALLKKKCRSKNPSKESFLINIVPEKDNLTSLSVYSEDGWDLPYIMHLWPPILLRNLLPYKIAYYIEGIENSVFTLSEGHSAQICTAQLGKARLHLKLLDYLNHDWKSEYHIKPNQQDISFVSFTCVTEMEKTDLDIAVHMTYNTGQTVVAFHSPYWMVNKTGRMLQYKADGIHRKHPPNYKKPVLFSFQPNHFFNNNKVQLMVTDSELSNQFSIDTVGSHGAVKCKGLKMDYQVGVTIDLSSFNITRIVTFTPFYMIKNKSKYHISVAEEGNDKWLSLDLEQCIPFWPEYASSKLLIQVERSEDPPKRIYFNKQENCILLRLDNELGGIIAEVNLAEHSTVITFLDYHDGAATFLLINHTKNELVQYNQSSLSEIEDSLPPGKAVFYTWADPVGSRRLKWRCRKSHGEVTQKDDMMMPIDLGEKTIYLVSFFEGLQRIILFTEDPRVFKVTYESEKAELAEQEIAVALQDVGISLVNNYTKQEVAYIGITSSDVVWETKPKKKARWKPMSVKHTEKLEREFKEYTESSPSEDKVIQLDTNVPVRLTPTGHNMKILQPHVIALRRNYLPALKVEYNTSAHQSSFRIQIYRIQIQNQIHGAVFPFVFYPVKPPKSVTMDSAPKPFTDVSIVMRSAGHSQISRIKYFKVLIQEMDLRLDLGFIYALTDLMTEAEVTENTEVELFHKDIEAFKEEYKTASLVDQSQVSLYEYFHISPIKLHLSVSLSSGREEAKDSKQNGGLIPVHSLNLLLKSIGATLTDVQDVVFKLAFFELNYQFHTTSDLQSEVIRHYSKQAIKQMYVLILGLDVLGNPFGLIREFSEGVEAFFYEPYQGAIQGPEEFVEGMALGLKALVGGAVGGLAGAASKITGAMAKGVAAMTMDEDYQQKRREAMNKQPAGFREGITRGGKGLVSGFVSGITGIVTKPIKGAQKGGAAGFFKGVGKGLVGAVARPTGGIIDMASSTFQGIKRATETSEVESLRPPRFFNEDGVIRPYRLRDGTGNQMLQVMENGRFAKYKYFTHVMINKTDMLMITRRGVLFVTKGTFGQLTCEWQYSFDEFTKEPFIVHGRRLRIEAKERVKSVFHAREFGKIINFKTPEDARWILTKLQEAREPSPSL
UniProt Q6P4I2: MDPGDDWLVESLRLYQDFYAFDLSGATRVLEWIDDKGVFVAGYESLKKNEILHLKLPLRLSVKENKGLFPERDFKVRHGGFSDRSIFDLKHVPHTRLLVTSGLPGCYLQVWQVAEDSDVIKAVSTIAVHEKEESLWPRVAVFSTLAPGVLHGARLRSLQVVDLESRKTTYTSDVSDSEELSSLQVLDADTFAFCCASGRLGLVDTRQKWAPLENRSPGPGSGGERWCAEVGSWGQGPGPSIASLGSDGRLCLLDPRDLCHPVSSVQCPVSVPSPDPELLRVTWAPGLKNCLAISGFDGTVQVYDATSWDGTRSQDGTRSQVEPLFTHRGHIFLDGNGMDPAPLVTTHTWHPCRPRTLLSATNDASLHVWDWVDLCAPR
UniProt Q9BQA1, whole entry, looked up: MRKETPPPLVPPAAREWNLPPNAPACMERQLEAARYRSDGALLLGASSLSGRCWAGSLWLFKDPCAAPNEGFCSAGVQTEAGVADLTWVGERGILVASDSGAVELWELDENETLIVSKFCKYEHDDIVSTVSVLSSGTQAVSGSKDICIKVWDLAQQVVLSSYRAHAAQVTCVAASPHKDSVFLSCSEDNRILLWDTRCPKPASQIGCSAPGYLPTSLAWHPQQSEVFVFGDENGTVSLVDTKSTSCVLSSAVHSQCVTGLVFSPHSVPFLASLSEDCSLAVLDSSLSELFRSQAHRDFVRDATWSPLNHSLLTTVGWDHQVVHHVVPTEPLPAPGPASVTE
UniProt A6NGB9: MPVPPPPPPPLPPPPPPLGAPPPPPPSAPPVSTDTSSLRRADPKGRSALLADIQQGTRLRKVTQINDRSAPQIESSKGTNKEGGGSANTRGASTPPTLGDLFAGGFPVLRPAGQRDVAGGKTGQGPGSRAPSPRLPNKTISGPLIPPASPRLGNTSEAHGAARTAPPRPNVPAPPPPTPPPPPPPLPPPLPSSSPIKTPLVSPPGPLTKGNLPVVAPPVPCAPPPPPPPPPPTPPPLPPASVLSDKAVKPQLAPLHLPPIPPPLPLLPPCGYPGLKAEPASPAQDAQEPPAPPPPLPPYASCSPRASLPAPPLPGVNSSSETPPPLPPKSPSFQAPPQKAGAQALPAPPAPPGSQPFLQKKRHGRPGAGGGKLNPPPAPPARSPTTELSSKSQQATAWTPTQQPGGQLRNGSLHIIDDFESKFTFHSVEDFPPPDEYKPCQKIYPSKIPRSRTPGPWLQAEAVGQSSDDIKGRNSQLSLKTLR
UniProt Q92558: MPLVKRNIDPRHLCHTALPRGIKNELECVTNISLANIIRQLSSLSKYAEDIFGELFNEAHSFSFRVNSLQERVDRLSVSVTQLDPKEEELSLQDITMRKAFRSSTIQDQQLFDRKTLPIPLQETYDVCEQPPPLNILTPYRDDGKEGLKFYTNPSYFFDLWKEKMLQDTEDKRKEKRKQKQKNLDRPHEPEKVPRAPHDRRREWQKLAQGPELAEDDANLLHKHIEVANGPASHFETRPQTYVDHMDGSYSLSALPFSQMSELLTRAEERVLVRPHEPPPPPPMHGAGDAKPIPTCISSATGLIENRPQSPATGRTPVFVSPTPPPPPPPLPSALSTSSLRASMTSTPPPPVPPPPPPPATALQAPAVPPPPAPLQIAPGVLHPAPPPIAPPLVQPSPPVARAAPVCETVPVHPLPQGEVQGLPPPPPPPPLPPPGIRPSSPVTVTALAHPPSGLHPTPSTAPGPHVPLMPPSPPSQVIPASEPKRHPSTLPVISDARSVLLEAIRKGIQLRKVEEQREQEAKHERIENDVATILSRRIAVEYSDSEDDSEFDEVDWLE
UniProt Q4G0F5, whole entry, looked up: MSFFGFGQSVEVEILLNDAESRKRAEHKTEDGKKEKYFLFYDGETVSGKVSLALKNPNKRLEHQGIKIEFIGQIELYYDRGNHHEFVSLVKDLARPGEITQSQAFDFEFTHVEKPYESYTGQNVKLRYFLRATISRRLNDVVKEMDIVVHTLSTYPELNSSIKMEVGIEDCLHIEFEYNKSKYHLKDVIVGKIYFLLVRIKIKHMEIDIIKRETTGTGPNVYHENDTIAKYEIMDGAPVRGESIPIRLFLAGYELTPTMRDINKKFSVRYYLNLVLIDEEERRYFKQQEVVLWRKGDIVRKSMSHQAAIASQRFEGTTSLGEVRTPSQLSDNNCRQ

These targets were tested with C1=CC=C(C=C1)C2=NC(=C(N2)C3=CC=NC=C3)C4=CC(=C(C=C4)Cl)O (assay: log2 fold change, soluble protein after heating vs DMSO (PISA); higher = thermal stabilisation; K562 cells, 10 uM, 30 min; active = over 0.2 and 3.5 SD of the protein, either way, in both replicates (recomputed)).
In short: (§1)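 K562 cells at 2×10^6 cells/mL were treated for 30 min with 10 μM compound, and aliquots were heated for 3 min over 48°C-58°C before pooling. Extraction used PBS with 0.5% NP-40 at 4°C, and soluble protein was the supernatant after 21,000xg for 90 min, measured by TMTpro 16plex LC-MS/MS with channel sums equalised. Thermal stability values, relative to control samples and from duplicates, are log2 fold changes.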

log2 fold change, inactive:
WDR5 (UniProt P61964) -0.032
WDR6 (UniProt Q9NNW5) -0.032
WDR13 (UniProt Q9H1Z4) 0.019
VPS4B (UniProt O75351) -0.019
WDR74 (UniProt Q6RFH5) -0.085
WDR36 (UniProt Q8NI36) 0.033
VPS13C (UniProt Q709C8) 0.013
WIPF2 (UniProt Q8TF74) -0.077
VPS36 (UniProt Q86VN1) -0.009
WDR70 (UniProt Q9NW82) -0.039
VPS26A (UniProt O75436) 0.017
VPS29 isoform 2 (UniProt Q9UBQ0) -0.015
WBP11 (UniProt Q9Y2W2) -0.002
WDR26, A0A499FIZ0 -0.038
VPS45 (UniProt Q9NRW7) 0.002
WDR82 (UniProt Q6UXN9) -0.019
WDFY1 (UniProt Q8IWB7) -0.016
VPS37B (UniProt Q9H9H4) 0.135
VWDE (UniProt Q8N2E2) 0.023
VWA5A (UniProt O00534) -0.049
VPS13A (UniProt Q96RL7) 0.023
WASL (UniProt O00401) 0.072
WDR73 (UniProt Q6P4I2) -0.011
WASHC4 (UniProt Q2M389) -0.018
VPS35 (UniProt Q96QK1) 0.042
WDR45 (UniProt Q9Y484) -0.011
VPS4A (UniProt Q9UN37) 0.034
WASF2 (UniProt Q9Y6W5) -0.043
WRAP53 (UniProt Q9BUR4) 0.007
WDR77 (UniProt Q9BQA1) 0.013
WIPF3 (UniProt A6NGB9) -0.067
WASF1 (UniProt Q92558) -0.118
VPS26B (UniProt Q4G0F5) 0.057

These targets were tested with C1=CC=C2C(=C1)C3=NNC4=CC=CC(=C43)C2=O in the same assay as above.
In short: as §1

log2 fold change, inactive:
WDR5 (UniProt P61964) 0.015
WDR6 (UniProt Q9NNW5) -0.01
WDR13 (UniProt Q9H1Z4) 0.024
VPS4B (UniProt O75351) 0.018
WDR74 (UniProt Q6RFH5) -0.003
WDR36 (UniProt Q8NI36) 0.005
VPS13C (UniProt Q709C8) -0.012
WIPF2 (UniProt Q8TF74) -0.013
VPS36 (UniProt Q86VN1) 0.014
WDR70 (UniProt Q9NW82) 0.004
VPS26A (UniProt O75436) 0.024
VPS29 isoform 2 (UniProt Q9UBQ0) -0.012
WBP11 (UniProt Q9Y2W2) -0.017
WDR26, A0A499FIZ0 -0.002
VPS45 (UniProt Q9NRW7) 0.025
WDR82 (UniProt Q6UXN9) -0.006
WDFY1 (UniProt Q8IWB7) -0.099
VPS37B (UniProt Q9H9H4) 0.164
VWDE (UniProt Q8N2E2) -0.031
VWA5A (UniProt O00534) -0.008
VPS13A (UniProt Q96RL7) -0.019
WASL (UniProt O00401) 0
WDR73 (UniProt Q6P4I2) -0.011
WASHC4 (UniProt Q2M389) -0.041
VPS35 (UniProt Q96QK1) 0.01
WDR45 (UniProt Q9Y484) -0.031
VPS4A (UniProt Q9UN37) 0.029
WASF2 (UniProt Q9Y6W5) -0.054
WRAP53 (UniProt Q9BUR4) -0.062
WDR77 (UniProt Q9BQA1) 0.01
WIPF3 (UniProt A6NGB9) -0.024
WASF1 (UniProt Q92558) 0.012
VPS26B (UniProt Q4G0F5) 0

What follows are targets tested with C1CCN(C1)C(=O)NC2=CC=CC(=C2)NC3=NC=C(C(=N3)NCCC4=CN=CN4)Br in the same assay as above.
In short: as §1

log2 fold change, inactive:
WDR5 (UniProt P61964) 0.011
WDR6 (UniProt Q9NNW5) 0.014
WDR13 (UniProt Q9H1Z4) 0.004
VPS4B (UniProt O75351) 0.032
WDR74 (UniProt Q6RFH5) -0.004
WDR36 (UniProt Q8NI36) -0.01
VPS13C (UniProt Q709C8) -0.023
WIPF2 (UniProt Q8TF74) 0.029
VPS36 (UniProt Q86VN1) 0.022
WDR70 (UniProt Q9NW82) -0.039
VPS26A (UniProt O75436) -0.034
VPS29 isoform 2 (UniProt Q9UBQ0) 0.022
WBP11 (UniProt Q9Y2W2) 0.013
WDR26, A0A499FIZ0 0.031
VPS45 (UniProt Q9NRW7) 0.046
WDR82 (UniProt Q6UXN9) 0.049
WDFY1 (UniProt Q8IWB7) 0.018
VPS37B (UniProt Q9H9H4) -0.119
VWDE (UniProt Q8N2E2) -0.016
VWA5A (UniProt O00534) 0.069
VPS13A (UniProt Q96RL7) -0.032
WASL (UniProt O00401) -0.042
WDR73 (UniProt Q6P4I2) 0.013
WASHC4 (UniProt Q2M389) 0.037
VPS35 (UniProt Q96QK1) 0.021
WDR45 (UniProt Q9Y484) 0.016
VPS4A (UniProt Q9UN37) 0.027
WASF2 (UniProt Q9Y6W5) 0.031
WRAP53 (UniProt Q9BUR4) 0.099
WDR77 (UniProt Q9BQA1) -0.03
WIPF3 (UniProt A6NGB9) -0.033
WASF1 (UniProt Q92558) -0.023
VPS26B (UniProt Q4G0F5) 0.021
